Part of at least one peptide drawing is inferred or uncertain, most often the ends. Peptide text beside a SMILES is read from it.
Key:
TNFα = TNFα plasma level by ELISA in EAE-induced mice; assay type: in vivo; conditions: NFKF 0.5 mg/kg per day orally by gavage, ELISA on 10 μL plasma, vs. MOG
IL-6 = IL-6 by ELISA in medium of leukocytes from spleen and inguinal lymph nodes of EAE mice; assay type: cell-based; conditions: spleen leukocytes of EAE mice, NFKF 100 μg/mL for 72 hours, with or without anti-CD3/MOG stimulation
IL-1β = IL-1β by ELISA in medium of leukocytes from spleen and inguinal lymph nodes of EAE mice; assay type: cell-based; conditions: NFKF 100 μg/mL for 72 hours, with or without anti-CD3/MOG stimulation
[1] = test system: female wild-type C57BL/6J mice; assay: Clinical scores in Experimental Autoimmune Encephalomyelitis (EAE) model; assay type: in vivo; conditions: NFKF 0.5 mg/kg per day orally vs saline
C57B6 mice = assay: In vivo tests for undesirable central effects (temperature, catalepsy, open field, hot plate, elevated plus maze); conditions: orally by gavage

## NCCCC[C@H](NC(=O)[C@H](Cc1ccccc1)NC(=O)[C@@H](N)CC(N)=O)C(=O)N[C@@H](Cc1ccccc1)C(=O)O [NFKF] (H-NFKF-OH; N-terminus and C-terminus assumed)
TNFα
  concentration of TNFα in plasma: substantial and significant reduction in the concentration of TNFα
IL-6
  levels of IL-6 in spleen leukocytes: significantly and substantially reduced the levels of IL-6
IL-1β; inguinal lymph node leukocytes of EAE mice
  levels of IL-1β in inguinal lymph node leukocytes: significant and substantial reduction in IL-1β levels
IL-1β; spleen leukocytes of EAE mice
  levels of IL-1β in spleen leukocytes: significantly and substantially reduced the levels of IL-1β
[1]
  clinical scores: clearly better
C57B6 mice; elevated plus maze
  depressive/anxiogenic behavior: does not induce depressive/anxiogenic behavior
C57B6 mice; n=7
  central effects (panels A-F of FIG. 4): does not lead to central effects
